Results reported in publication PMC7950132 (Molecular & Cellular Proteomics : MCP, 2021).
These are yes or no findings as the source states them, for the method shown. Some entries that bind do so weakly or less than the wild type.

Sequences of proteins named here, by UniProt entry; tags and fusion partners are left off. A change or cut given only in a name is not applied to a line headed by its entry.
UniProt Q93034: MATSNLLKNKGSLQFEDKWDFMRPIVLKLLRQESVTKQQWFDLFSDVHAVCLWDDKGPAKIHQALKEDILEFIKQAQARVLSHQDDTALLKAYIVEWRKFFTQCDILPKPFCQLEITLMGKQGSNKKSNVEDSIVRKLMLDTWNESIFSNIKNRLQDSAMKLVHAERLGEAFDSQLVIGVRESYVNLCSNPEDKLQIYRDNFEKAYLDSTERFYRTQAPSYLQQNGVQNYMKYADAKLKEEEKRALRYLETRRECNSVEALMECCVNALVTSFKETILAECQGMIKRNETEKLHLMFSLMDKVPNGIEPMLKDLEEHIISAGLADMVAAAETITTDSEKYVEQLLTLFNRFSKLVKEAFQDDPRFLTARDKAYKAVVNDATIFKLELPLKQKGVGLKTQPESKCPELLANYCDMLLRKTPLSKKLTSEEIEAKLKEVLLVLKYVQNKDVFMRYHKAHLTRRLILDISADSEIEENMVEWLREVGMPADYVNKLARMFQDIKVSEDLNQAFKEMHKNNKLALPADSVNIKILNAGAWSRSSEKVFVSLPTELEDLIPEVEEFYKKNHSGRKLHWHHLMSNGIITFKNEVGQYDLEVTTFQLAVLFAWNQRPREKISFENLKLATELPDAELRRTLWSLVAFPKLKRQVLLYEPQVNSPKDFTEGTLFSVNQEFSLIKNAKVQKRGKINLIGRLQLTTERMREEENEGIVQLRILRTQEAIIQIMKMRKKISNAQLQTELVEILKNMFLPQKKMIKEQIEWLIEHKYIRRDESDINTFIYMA
UniProt Q9WTZ1: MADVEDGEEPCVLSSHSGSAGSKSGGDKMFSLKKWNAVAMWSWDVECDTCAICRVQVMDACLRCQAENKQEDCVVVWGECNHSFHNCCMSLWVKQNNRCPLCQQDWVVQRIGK

Key:
CUL5(NEDD8) = target: T1, CUL5(NEDD8) (human, UniProt Q93034 1-780; Q15843 1-76, NEDD8 attached at K724); assay: co-purification (Ni-NTA, then SEC); coexpression in E. coli BL21 and mixing of lysates; His tags on ASB9 and CUL5; composition checked by SEC, SDS-PAGE and LC MS/MS
T1 construct: cullin 5, human; NEDD8, human, conjugated to CUL5; Always present together with RBX2 and ELOB/C in the experiments; written alone for the pairs inside the complexes; The His tag on CUL5 served the Ni-NTA step before TEV cleavage; also called neddylated CUL5; source: E. coli BL21, coexpressed with RBX2 and ELOB/C, neddylated in mixed lysates, purified (Ni-NTA, SEC); not shown: His6, N-terminal, …

[1] = target: ankyrin repeat and SOCS box protein 9 (ASB9) (human) (UniProt Q96DX5); assay: as above

ring box protein 2 (RBX2) (from UniProt Q9WTZ1 1-113)
binding (CUL5(NEDD8)): binds | binding [1]: binds
